# Test results reported in the supplement of paper PMC12823440, “Inhibitors supercharge kinase turnover through native proteolytic circuits” (Nature, 2025).
# Sequences of proteins named here, by UniProt entry; tags and fusion partners are left off. A change or cut given only in a name is not applied to a line headed by its entry.
# UniProt P50613: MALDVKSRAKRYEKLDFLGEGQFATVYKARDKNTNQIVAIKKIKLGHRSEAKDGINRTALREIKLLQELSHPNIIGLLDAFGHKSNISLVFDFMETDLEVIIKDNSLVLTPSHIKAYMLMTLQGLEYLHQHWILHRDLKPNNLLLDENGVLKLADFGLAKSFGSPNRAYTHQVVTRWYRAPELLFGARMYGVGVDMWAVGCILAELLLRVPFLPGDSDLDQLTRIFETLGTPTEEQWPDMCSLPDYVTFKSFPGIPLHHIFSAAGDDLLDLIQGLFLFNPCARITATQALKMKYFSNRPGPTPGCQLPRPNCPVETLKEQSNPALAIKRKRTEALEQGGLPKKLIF
# Structures can show the parent of a compound that is named as a salt. The list shows a part of the results. Hit calls seldom repeat between salt and free forms of one compound.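 In K562 cells expressing nanoluciferase-fused kinases, luminescence was recorded at 4 h intervals between 2 and 18 h, normalized as percent of control with DMSO at 100% and a positive control at 0%. A significant (2 sigma) signal drop marks a time point as decreased. The authors' rule for a hit is not shown and takes in more than the number of time points.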
# Target: CDK7 (UniProt P50613)
# Experiment: kinase-Nluc reporter destabilization hit call (1 = scored as downregulated) (binary); higher = compound decreases kinase abundance
# Details: K562; 2-18 h
row,Compound,kinase-Nluc reporter destabilization hit call
1,CC(C)(C)n1nc(Cc2cccc3ccccc23)c2c(N)ncnc21 (10 µM),inactive: 0
2,CC1(C)CC=C(c2nc(C3CC(C)(C)OC(C)(C)C3)ccc2NC(=O)c2nc(C#N)c[nH]2)CC1 [Edicotinib] (2.5 µM),inactive: 0
3,CC(C)CC(=O)Nc1n[nH]c2c1CN(C(=O)C1CCN(C)CC1)C2(C)C (2.5 µM),inactive: 0
4,Nc1ncnc2c1c(-c1ccc(Oc3ccccc3)cc1)cn2C1CCCC1 (2.5 µM),inactive: 0
5,CC(=O)NCC(=O)N1[C@@H]2CC[C@H]1c1ccc(Nc3ncc(C(F)(F)F)c(NC4CCC4)n3)cc12 (2.5 µM),active: 1
6,Cc1nc(-c2cnc(NC(C)C)n(C)c2=O)ccc1Oc1ccnc(-c2cnn(C)c2)c1 (2.5 µM),inactive: 0
7,CN(C)C(=O)/C(C#N)=C/c1ccc(-c2nc3cnc4[nH]ccc4c3n2C2CCCCC2)o1 (10 µM),inactive: 0
8,CCCS(=O)(=O)Nc1ccc(F)c(C(=O)c2c[nH]c3ncc(Cl)cc23)c1F (10 µM),inactive: 0
9,COc1ccc2c(NC(=O)Nc3cccc(C(F)(F)F)n3)ccnc2c1 (10 µM),inactive: 0
10,CNC(=O)c1cccc(-c2ccc3c(N4CCOC[C@@H]4C)nc(N4CCOC[C@@H]4C)nc3n2)c1 [Vistusertib] (2.5 µM),active: 1
11,COCCNCCc1cccc(Nc2ncc3c(n2)-c2ccccc2[C@H](c2ccccc2F)C3)c1 [Derazantinib] (2.5 µM),inactive: 0
12,CNC(=O)c1ccccc1Nc1nc(Nc2ccc(N3CCOCC3)cc2OC)ncc1Cl (2.5 µM),inactive: 0
13,Cc1c(C(=O)N2CCOc3ccc(-c4ccc(N)nc4)cc3C2)ccc(S(C)(=O)=O)c1F (10 µM),inactive: 0
14,Cc1ccc(NC(=O)Nc2nnc(Sc3ncnc4cc(OCCCN5CCOCC5)ccc34)s2)cc1 (10 µM),inactive: 0
15,N#CC(=Cc1ccc(O)c(O)c1)C(=O)NCc1ccccc1 (mixture of isomers) (10 µM),inactive: 0
16,COc1ccc(COc2ccc(Cc3cnc(N)nc3N)cc2OC)cc1 (10 µM),inactive: 0
17,CC(=O)N1CCN(c2ccc(OCC3COC(Cn4ccnc4)(c4ccc(Cl)cc4Cl)O3)cc2)CC1 (stereo not drawn) [Ketoconazole] (2.5 µM),inactive: 0

row,Compound,kinase-Nluc reporter destabilization hit call
1,Cc1ccc(F)c(NC(=O)Nc2ccc(-c3cccc4[nH]nc(N)c34)cc2)c1 [Linifanib] (2.5 µM),inactive: 0
2,NC(=O)c1ccc2nc(-c3ccc(Oc4ccc(Cl)cc4)cc3)[nH]c2c1 (10 µM),inactive: 0
3,CNc1nc(-c2ccc3c(N)n[nH]c3c2)cc(N2C[C@@H](C(=O)NC3CCCCC3)CC[C@H]2C)n1 (10 µM),inactive: 0
4,Cc1nc(N)sc1-c1ccnc(Nc2ccc(N3CCOCC3)cc2)n1 (10 µM),active: 1
5,O=c1oc2ccccc2c(O)c1Cc1c(O)c2ccccc2oc1=O [Dicoumarol] (10 µM),inactive: 0
6,CCc1nc(-c2cccc(C)c2)c(-c2ccnc(NC(=O)c3ccccc3)c2)s1 (10 µM),inactive: 0
7,CC(C)(C)c1cc(NC(=O)Nc2ccc(-c3cn4c(n3)sc3cc(OCCN5CCOCC5)ccc34)cc2)no1 [Quizartinib] (10 µM),inactive: 0
8,O=S(=O)(NCCNC/C=C/c1ccc(Br)cc1)c1cccc2cnccc12 [H-89 (dihydrochloride)] (10 µM),inactive: 0
9,COc1cc2ncn(-c3cc(OCc4ccccc4C(F)(F)F)c(C(N)=O)s3)c2cc1OC (10 µM),inactive: 0
10,CCn1cc(-c2ccnc3[nH]c(-c4cccc(CN(C)C)c4)cc23)c(-c2ccc(NC(=O)N(C)C)cc2)n1 (2.5 µM),inactive: 0
11,O=C1c2ccccc2-c2n[nH]c3cccc1c23 (10 µM),inactive: 0
12,C[C@]1(O)C[C@@H](c2nc(-c3ccc4ccc(-c5ccccc5)nc4c3)c3c(N)nccn32)C1 [Linsitinib] (2.5 µM),inactive: 0
13,C[C@H](CN(C)C)Oc1nc(Nc2cc3cccc(Cl)c3cn2)cnc1C#N (10 µM),inactive: 0
14,Cc1cc(C)c(/C=C2\C(=O)Nc3ccccc32)[nH]1 [Semaxinib] (10 µM),inactive: 0
15,Cc1cccc(Cn2nc(C3CC3)c3c(NC(=O)c4cnc5cc(OCCN6CCN(C)CC6)ccn45)cccc32)n1 (10 µM),inactive: 0
16,COc1cc(OC)cc(-c2cc3cnc(N)nc3nc2NC(=O)NC(C)(C)C)c1 (10 µM),inactive: 0

# Structures shown so far with an NH in an aromatic ring:
row,Compound,kinase-Nluc reporter destabilization hit call
2,CC1(C)CC=C(c2nc(C3CC(C)(C)OC(C)(C)C3)ccc2NC(=O)c2nc(C#N)c[nH]2)CC1 [Edicotinib] (2.5 µM),inactive: 0
3,CC(C)CC(=O)Nc1n[nH]c2c1CN(C(=O)C1CCN(C)CC1)C2(C)C (2.5 µM),inactive: 0
7,CN(C)C(=O)/C(C#N)=C/c1ccc(-c2nc3cnc4[nH]ccc4c3n2C2CCCCC2)o1 (10 µM),inactive: 0
8,CCCS(=O)(=O)Nc1ccc(F)c(C(=O)c2c[nH]c3ncc(Cl)cc23)c1F (10 µM),inactive: 0
1,Cc1ccc(F)c(NC(=O)Nc2ccc(-c3cccc4[nH]nc(N)c34)cc2)c1 [Linifanib] (2.5 µM),inactive: 0
2,NC(=O)c1ccc2nc(-c3ccc(Oc4ccc(Cl)cc4)cc3)[nH]c2c1 (10 µM),inactive: 0
3,CNc1nc(-c2ccc3c(N)n[nH]c3c2)cc(N2C[C@@H](C(=O)NC3CCCCC3)CC[C@H]2C)n1 (10 µM),inactive: 0
10,CCn1cc(-c2ccnc3[nH]c(-c4cccc(CN(C)C)c4)cc23)c(-c2ccc(NC(=O)N(C)C)cc2)n1 (2.5 µM),inactive: 0
11,O=C1c2ccccc2-c2n[nH]c3cccc1c23 (10 µM),inactive: 0
14,Cc1cc(C)c(/C=C2\C(=O)Nc3ccccc32)[nH]1 [Semaxinib] (10 µM),inactive: 0
